# Assay results reported in patent US9788539B2, “Platelet protection solution having beta-galactosidase and sialidase inhibitors” (Velico Medical, Inc., priority 2011, dated 2017).
# Some of these results come from one statement about several compounds together.
# Test system: mouse platelets
# Assay: Sialidase (neuraminidase)-induced loss of platelet surface receptors, flow cytometry and immunoblot
# Assay type: cell-based
substance,measurement,value
"α2-3,6,8-neuraminidase: α2-3,6,8-neuraminidase (NA; Vibrio cholerae)",removal of surface GPIbα and GPV,50-60%
